Results: the supplement of paper PMC10849652
The list shows a part of the results.

By UniProt entry, the sequences of proteins in these tests, tags left out. Where a name states a change or a piece, a line headed by the entry shows the natural chain unless it says otherwise.
UniProt Q15041, whole entry, looked up: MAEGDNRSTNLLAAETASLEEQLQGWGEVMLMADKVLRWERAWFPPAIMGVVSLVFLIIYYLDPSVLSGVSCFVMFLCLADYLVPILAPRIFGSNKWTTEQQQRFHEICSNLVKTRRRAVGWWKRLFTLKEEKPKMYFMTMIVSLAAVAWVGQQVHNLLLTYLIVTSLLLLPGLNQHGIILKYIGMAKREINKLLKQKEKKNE
UniProt Q9NVI7: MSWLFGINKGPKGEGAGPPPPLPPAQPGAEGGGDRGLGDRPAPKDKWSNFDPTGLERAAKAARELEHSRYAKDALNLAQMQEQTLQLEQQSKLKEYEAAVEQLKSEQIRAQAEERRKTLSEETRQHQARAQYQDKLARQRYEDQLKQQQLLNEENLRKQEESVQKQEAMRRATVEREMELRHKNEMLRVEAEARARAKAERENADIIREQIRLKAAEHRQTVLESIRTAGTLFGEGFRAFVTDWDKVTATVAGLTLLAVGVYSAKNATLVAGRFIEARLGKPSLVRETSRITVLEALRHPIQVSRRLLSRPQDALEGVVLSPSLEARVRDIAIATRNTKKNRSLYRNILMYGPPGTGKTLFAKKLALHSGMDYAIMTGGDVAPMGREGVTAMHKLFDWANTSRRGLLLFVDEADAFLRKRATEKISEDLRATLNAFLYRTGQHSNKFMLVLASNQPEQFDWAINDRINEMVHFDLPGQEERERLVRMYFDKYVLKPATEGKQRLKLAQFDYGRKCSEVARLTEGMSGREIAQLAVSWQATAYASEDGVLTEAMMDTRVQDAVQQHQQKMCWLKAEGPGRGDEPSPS
UniProt P32121, whole entry, looked up: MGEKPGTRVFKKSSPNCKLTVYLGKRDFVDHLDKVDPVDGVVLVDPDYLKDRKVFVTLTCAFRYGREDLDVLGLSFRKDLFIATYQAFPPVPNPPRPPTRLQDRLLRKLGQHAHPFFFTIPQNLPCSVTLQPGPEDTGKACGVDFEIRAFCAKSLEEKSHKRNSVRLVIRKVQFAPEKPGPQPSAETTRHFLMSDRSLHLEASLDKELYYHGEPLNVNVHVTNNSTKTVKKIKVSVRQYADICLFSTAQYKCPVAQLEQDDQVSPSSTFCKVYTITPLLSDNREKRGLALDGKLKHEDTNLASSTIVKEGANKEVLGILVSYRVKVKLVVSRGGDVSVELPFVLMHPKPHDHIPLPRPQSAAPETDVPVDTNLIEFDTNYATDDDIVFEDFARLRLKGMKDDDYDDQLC
UniProt P56211: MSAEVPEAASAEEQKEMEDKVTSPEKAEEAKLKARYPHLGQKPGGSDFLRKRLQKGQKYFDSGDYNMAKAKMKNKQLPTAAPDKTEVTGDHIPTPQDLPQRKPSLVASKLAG
UniProt Q15904, whole entry, looked up: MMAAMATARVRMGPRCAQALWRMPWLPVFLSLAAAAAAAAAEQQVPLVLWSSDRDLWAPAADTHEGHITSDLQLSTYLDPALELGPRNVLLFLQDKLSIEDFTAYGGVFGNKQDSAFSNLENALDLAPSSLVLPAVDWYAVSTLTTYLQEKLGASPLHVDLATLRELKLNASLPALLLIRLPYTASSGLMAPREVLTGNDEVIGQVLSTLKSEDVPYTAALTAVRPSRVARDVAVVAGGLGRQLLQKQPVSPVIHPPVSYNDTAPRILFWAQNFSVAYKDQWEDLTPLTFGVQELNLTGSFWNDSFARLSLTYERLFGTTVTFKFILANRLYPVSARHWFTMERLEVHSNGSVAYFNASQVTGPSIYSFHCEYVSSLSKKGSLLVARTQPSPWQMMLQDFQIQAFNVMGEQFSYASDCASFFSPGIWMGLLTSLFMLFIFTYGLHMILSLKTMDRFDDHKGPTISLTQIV
UniProt P54707, whole entry, looked up: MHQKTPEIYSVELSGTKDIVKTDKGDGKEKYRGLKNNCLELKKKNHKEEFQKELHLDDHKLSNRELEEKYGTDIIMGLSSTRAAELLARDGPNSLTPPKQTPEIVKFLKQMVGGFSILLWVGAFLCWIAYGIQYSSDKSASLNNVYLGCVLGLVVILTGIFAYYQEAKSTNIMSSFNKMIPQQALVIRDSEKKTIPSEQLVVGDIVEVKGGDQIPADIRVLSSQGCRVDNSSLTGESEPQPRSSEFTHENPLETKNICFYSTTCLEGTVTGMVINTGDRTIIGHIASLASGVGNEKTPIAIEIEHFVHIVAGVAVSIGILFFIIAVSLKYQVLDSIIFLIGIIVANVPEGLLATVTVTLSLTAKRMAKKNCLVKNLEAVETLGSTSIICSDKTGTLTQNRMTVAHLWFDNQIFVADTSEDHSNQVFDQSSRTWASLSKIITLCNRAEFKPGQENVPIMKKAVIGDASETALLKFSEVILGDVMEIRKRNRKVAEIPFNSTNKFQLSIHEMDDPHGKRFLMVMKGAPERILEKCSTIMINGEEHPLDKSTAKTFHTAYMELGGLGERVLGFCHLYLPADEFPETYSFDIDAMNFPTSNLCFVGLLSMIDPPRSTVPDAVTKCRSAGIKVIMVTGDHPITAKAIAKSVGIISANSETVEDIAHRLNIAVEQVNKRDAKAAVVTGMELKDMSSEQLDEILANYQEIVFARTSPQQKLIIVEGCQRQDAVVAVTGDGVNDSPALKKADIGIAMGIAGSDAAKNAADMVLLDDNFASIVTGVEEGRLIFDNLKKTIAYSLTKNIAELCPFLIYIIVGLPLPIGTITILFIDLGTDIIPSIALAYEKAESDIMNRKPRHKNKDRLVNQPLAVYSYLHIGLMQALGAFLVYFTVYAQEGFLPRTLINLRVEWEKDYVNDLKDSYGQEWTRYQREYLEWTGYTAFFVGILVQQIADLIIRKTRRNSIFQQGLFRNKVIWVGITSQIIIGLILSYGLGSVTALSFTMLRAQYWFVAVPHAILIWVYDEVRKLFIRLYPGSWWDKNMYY
UniProt Q9UI12, whole entry, looked up: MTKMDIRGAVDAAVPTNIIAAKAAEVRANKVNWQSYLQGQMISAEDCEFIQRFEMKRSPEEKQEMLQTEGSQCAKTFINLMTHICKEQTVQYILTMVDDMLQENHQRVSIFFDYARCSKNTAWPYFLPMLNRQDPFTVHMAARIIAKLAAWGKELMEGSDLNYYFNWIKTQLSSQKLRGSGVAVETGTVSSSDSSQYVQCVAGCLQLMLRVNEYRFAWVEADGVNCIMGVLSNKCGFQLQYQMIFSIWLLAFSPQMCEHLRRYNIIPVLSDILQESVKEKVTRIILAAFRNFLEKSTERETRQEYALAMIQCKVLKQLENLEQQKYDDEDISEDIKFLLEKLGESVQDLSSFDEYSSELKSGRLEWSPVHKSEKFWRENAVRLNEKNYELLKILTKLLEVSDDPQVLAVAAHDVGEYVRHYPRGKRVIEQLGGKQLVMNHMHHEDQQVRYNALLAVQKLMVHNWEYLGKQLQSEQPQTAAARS
UniProt Q93084: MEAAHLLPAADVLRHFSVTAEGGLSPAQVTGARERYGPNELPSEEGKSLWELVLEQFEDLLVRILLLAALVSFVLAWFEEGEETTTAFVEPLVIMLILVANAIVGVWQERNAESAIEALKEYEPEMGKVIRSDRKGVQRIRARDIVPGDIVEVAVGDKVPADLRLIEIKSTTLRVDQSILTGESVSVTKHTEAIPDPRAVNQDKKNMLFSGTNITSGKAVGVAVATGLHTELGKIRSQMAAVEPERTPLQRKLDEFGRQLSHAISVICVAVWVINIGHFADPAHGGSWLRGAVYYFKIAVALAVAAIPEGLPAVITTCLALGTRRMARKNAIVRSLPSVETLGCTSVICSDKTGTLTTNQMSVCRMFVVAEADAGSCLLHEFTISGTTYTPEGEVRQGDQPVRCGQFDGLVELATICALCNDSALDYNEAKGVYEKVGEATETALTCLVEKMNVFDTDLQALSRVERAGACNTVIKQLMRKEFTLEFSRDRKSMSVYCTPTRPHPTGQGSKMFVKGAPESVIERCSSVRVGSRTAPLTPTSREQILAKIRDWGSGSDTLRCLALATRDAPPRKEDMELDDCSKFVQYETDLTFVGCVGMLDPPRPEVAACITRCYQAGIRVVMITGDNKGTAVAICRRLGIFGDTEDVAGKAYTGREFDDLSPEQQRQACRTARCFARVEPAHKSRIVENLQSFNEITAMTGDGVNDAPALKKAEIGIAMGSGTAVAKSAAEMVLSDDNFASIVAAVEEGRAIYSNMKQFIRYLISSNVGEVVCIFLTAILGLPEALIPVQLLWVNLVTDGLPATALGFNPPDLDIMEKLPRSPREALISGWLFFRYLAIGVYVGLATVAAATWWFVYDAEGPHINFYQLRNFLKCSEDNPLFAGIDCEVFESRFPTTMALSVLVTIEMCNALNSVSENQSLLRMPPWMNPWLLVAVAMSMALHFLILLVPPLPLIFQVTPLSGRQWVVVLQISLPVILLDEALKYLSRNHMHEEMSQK
UniProt Q9NQ11: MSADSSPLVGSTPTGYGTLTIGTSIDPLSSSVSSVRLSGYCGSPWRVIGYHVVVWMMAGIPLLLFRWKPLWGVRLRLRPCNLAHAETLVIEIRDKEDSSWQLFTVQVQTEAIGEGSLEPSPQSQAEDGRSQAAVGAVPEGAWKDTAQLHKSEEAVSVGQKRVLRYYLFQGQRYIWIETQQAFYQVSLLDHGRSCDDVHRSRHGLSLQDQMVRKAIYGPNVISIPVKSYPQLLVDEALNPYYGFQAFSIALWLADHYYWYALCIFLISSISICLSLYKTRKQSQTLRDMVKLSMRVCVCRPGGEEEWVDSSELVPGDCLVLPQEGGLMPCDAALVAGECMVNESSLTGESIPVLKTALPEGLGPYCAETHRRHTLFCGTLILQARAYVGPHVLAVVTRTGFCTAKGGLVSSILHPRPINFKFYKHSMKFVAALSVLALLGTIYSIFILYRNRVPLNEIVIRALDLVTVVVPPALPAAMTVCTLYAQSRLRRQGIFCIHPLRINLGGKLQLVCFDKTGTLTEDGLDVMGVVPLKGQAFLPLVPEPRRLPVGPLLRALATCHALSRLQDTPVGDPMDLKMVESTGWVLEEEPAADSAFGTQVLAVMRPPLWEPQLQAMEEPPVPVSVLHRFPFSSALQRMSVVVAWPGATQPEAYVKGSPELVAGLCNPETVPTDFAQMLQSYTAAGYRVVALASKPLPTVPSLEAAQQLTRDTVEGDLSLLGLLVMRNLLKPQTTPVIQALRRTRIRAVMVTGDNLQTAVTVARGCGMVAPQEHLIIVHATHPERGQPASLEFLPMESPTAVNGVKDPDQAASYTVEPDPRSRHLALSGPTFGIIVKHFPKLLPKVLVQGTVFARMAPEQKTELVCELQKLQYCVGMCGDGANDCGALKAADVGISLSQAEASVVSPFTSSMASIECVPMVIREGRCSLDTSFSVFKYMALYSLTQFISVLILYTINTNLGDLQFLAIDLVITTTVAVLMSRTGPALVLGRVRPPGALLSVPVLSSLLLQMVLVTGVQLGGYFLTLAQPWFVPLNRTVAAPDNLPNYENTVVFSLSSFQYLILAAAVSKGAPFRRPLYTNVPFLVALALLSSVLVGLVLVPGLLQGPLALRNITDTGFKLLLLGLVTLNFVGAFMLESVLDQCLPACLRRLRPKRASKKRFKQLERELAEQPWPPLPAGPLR
UniProt Q5T9A4: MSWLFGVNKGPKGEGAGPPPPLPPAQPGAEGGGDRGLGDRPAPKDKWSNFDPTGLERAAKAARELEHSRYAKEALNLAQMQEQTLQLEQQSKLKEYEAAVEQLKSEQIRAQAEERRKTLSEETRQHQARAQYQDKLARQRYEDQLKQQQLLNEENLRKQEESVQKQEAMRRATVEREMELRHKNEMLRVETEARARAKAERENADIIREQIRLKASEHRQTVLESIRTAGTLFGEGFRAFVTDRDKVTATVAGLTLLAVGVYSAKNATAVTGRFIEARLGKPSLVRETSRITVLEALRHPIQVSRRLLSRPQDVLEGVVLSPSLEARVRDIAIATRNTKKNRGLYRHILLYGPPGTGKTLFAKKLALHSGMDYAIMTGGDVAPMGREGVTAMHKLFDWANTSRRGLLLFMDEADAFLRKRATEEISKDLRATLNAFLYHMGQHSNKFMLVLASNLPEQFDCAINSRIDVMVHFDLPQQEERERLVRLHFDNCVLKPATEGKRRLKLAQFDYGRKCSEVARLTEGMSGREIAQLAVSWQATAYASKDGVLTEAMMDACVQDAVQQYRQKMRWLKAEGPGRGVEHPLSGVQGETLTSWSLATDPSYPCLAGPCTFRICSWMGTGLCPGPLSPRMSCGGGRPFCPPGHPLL
UniProt P14415, whole entry, looked up: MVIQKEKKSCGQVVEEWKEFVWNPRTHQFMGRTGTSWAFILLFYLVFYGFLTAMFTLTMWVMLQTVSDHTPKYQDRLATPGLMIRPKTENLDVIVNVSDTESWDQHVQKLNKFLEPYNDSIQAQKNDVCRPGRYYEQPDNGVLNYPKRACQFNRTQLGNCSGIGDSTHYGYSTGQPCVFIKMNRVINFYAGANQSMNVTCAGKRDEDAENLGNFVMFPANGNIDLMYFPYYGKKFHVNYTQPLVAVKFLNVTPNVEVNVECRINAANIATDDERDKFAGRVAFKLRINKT
UniProt P40616: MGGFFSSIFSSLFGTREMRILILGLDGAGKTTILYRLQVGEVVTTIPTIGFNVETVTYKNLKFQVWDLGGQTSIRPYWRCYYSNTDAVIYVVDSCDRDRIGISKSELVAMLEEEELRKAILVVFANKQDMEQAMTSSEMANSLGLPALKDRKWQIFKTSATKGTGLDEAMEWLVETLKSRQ

Columns and labels:
Assay in all cases: log2 fold change, soluble protein after heating vs DMSO (PISA); higher = thermal stabilisation; K562 cells, 10 uM, 30 min; active = over 0.2 and 3.5 SD of the protein, either way, in both replicates (recomputed)
[1] = compound: CS(=O)(=O)c1ccc(-c2cnc(N)c(C(=O)Nc3ccccc3)n2)cc1
In short: (§1)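 Soluble protein was quantified by TMTpro 16plex LC-MS/MS after channel sums were equalised. It was obtained as the supernatant after 21,000xg for 90 min from pooled aliquots of K562 cells (2×10^6 cells/mL, 10 μM compound, 30 min) heated for 3 min across 48°C-58°C and extracted in PBS with 0.5% NP-40 at 4°C. Thermal stability values are relative to control samples and come from duplicates. They are given as log2 fold changes.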

crizotinib = compound: C[C@@H](Oc1cc(-c2cnn(C3CCNCC3)c2)cnc1N)c1c(Cl)ccc(F)c1Cl [crizotinib]
In short: as §1

[2] = compound: C[C@@H]1COCCN1C2=NC(=NC(=C2)C3(CC3)S(=O)(=O)C)C4=C5C=CNC5=CC=C4
In short: as §1

[3] = compound: C[C@H](C1=CC=C(C=C1)C(=O)NC2=C3C=CNC3=NC=C2)N
In short: as §1

duvelisib = compound: C[C@H](Nc1ncnc2nc[nH]c12)c1cc2cccc(Cl)c2c(=O)n1-c1ccccc1 [duvelisib]
In short: as §1

gandotinib = compound: Cc1cc(Nc2cc(CN3CCOCC3)c3nc(C)c(Cc4ccc(Cl)cc4F)n3n2)n[nH]1 [gandotinib]
In short: as §1

tozasertib = compound: Cc1cc(Nc2cc(N3CCN(C)CC3)nc(Sc3ccc(NC(=O)C4CC4)cc3)n2)n[nH]1 [tozasertib]
In short: as §1

[4] = compound: Cc1cc(SCc2sc(-c3ccc(C(F)(F)F)cc3)nc2C)ccc1OCC(=O)O
In short: as §1

doramapimod = compound: Cc1ccc(-n2nc(C(C)(C)C)cc2NC(=O)Nc2ccc(OCCN3CCOCC3)c3ccccc23)cc1 [doramapimod]
In short: as §1

ispinesib = compound: Cc1ccc(C(=O)N(CCCN)[C@@H](c2nc3cc(Cl)ccc3c(=O)n2Cc2ccccc2)C(C)C)cc1 [ispinesib]
In short: as §1

bafetinib = compound: Cc1ccc(NC(=O)c2ccc(CN3CC[C@H](N(C)C)C3)c(C(F)(F)F)c2)cc1Nc1nccc(-c2cncnc2)n1 [bafetinib]
In short: as §1

[5] = compound: Cc1cccc(CC(=O)N2CCc3c2ccc(-c2cn(C)c4ncnc(N)c24)c3F)n1
In short: as §1

nilotinib = compound: Cc1cn(-c2cc(NC(=O)c3ccc(C)c(Nc4nccc(-c5cccnc5)n4)c3)cc(C(F)(F)F)c2)cn1 [nilotinib]
In short: as §1

[6] = compound: Cc1nc(Nc2n[nH]c3c2CN(C(=O)N[C@H](CN(C)C)c2ccccc2)C3(C)C)c2sccc2n1
In short: as §1

dasatinib = compound: Cc1nc(Nc2ncc(C(=O)Nc3c(C)cccc3Cl)s2)cc(N2CCN(CCO)CC2)n1 [dasatinib]
In short: as §1

[7] = compound: Cc1ncc(-c2ccnc(Nc3ccc(S(C)(=O)=O)cc3)n2)n1C(C)C
In short: as §1

[8] = compound: Cn1cc(-c2ccc3c(c2)CCN3C(=O)Cc2cccc(C(F)(F)F)c2)c2c(N)ncnc21
In short: as §1

[9] = compound: Cn1cc(-c2ccc3nnc(C(F)(F)c4ccc5ncccc5c4)n3n2)cn1
In short: as §1

tipifarnib = compound: Cn1cncc1[C@@](N)(c1ccc(Cl)cc1)c1ccc2c(c1)c(-c1cccc(Cl)c1)cc(=O)n2C [tipifarnib]
In short: as §1

mubritinib = compound: FC(F)(F)c1ccc(/C=C/c2nc(COc3ccc(CCCCn4ccnn4)cc3)co2)cc1 [mubritinib]
In short: as §1

Target	log2 fold change [1]	log2 fold change (crizotinib)	log2 fold change [2]	log2 fold change [3]	log2 fold change (duvelisib)	log2 fold change (gandotinib)	log2 fold change (tozasertib)	log2 fold change [4]	log2 fold change (doramapimod)	log2 fold change (ispinesib)	log2 fold change (bafetinib)	log2 fold change [5]	log2 fold change (nilotinib)	log2 fold change [6]	log2 fold change (dasatinib)	log2 fold change [7]	log2 fold change [8]	log2 fold change [9]	log2 fold change (tipifarnib)	log2 fold change (mubritinib)
ARL6IP1 (UniProt Q15041)	inactive: -0.063	inactive: 0.175	inactive: 0.067	inactive: -0.042	inactive: -0.026	inactive: 0.026	inactive: -0.046	inactive: 0.039	inactive: -0.144	inactive: 0.09	inactive: -0.074	inactive: 0.09	inactive: 0.02	inactive: -0.004	inactive: 0.013	inactive: -0.053	inactive: 0.014	inactive: 0.161	inactive: 0.007	inactive: 0.061
ATAD3A isoform 2 (UniProt Q9NVI7)	inactive: 0.003	inactive: -0.191	inactive: -0.052	inactive: 0.101		inactive: 0.032		inactive: 0.075	inactive: 0.057	active: -0.348	inactive: -0.104	inactive: 0.035	inactive: -0.141	inactive: -0.053	inactive: -0.094	inactive: 0	inactive: -0.082	inactive: -0.101	inactive: 0.097	inactive: -0.215
ARRB2 isoform 4 (UniProt P32121)	inactive: 0.025	inactive: 0.037	inactive: 0.081	inactive: -0.029	inactive: 0.103	inactive: -0.034	inactive: -0.012	inactive: -0.034	inactive: 0.062	inactive: -0.018	inactive: -0.05	inactive: -0.025	inactive: 0.004	inactive: -0.026	inactive: 0.031	inactive: 0.009	inactive: 0.037	inactive: 0.07	inactive: -0.006	inactive: 0.04
ARPP19 (UniProt P56211)	inactive: -0.017	inactive: 0.059	inactive: 0.006	inactive: -0.106		inactive: 0.019		inactive: -0.106	inactive: -0.037	inactive: 0.048	inactive: -0.057	inactive: 0.005	inactive: 0.02	inactive: -0.041	inactive: 0.045	inactive: -0.004	inactive: 0.033	inactive: -0.022	inactive: -0.055	inactive: 0.002
ATP1A1 (UniProt P05023)	inactive: 0.032	inactive: 0.165	inactive: 0.028	inactive: -0.117		inactive: -0.049		inactive: -0.035	inactive: -0.047	inactive: 0.106	inactive: 0.018	inactive: 0.102	inactive: 0.062	inactive: 0.008	inactive: 0.07	inactive: 0.005	inactive: 0.04	inactive: 0.001	inactive: -0.011	inactive: 0.023
ATP6AP1 (UniProt Q15904)	inactive: -0.006	inactive: -0.134	inactive: -0.161	inactive: 0.146		inactive: -0.03		inactive: 0.055	inactive: 0.045	active: -0.317	inactive: -0.052	inactive: 0.025	inactive: 0.024	inactive: -0.041	inactive: 0.016	inactive: -0.041	inactive: -0.081	inactive: -0.064	inactive: 0.011	inactive: -0.051
ATP12A isoform 2 (UniProt P54707)	inactive: 0.02	inactive: 0.162	inactive: 0.138	inactive: -0.087		inactive: -0.047		inactive: -0.056	inactive: -0.004	inactive: 0.137	inactive: 0.026	inactive: 0.011	inactive: 0.02	inactive: -0.007	inactive: 0.022	inactive: 0.007	inactive: 0.066	inactive: 0.04	inactive: 0.016	inactive: 0.018
ATP6V1H (UniProt Q9UI12)	inactive: -0.045	inactive: -0.199	inactive: 0.019	inactive: 0.003		inactive: 0.021		inactive: 0.014	inactive: 0.038	inactive: -0.089	inactive: -0.057	inactive: 0.037	inactive: -0.015	inactive: -0.016	inactive: -0.029	inactive: 0.049	inactive: 0.025	inactive: -0.013	inactive: -0.01	inactive: 0.098
ATP2A3 isoform 2 (UniProt Q93084)	inactive: -0.003	inactive: 0.084	inactive: -0.048	inactive: -0.022		inactive: -0.068		inactive: -0.025	inactive: -0.023	inactive: -0.091	inactive: -0.063	inactive: -0.001	inactive: -0.057	inactive: -0.064	inactive: -0.005	inactive: 0.058	inactive: -0.014	inactive: 0.076	inactive: 0.025	inactive: -0.044
ATP9B (UniProt O43861)	inactive: 0.281	inactive: -0.033	inactive: -0.066	inactive: -0.098		inactive: -0.053		inactive: 0	inactive: 0.015	inactive: -0.208	inactive: -0.042	inactive: -0.042	inactive: -0.147	inactive: -0.149	inactive: -0.067	inactive: 0.038	inactive: 0.037	inactive: -0.096	inactive: 0.121	inactive: 0.069
ATP13A2 (UniProt Q9NQ11)	inactive: -0.012	inactive: -0.214	inactive: 0.031	inactive: 0.008		inactive: 0.01		inactive: 0.018	inactive: 0.025	active: -0.363	inactive: -0.002	inactive: 0.001	inactive: 0.01	inactive: 0.014	inactive: -0.007	inactive: 0.018	inactive: 0.045	inactive: 0.069	inactive: 0.06	inactive: 0.108
ATAD3B (UniProt Q5T9A4)	inactive: 0.009	inactive: -0.171	inactive: -0.112	inactive: 0.191		inactive: 0.033		inactive: 0.105	inactive: 0.137	active: -0.544	inactive: -0.014	inactive: 0.018	inactive: -0.072	inactive: -0.039	inactive: -0.099	inactive: 0.027	inactive: -0.103	inactive: -0.186	inactive: 0.03	inactive: -0.37
ASNA1 (UniProt O43681)	inactive: -0.035	inactive: 0.042	inactive: 0.021	inactive: 0.001	inactive: 0.047	inactive: 0.002	inactive: 0.004	inactive: -0.002	inactive: 0.004	inactive: 0.091	inactive: 0.018	inactive: -0.019	inactive: 0.01	inactive: 0.017	inactive: 0.013	inactive: 0.007	inactive: -0.004	inactive: 0.024	inactive: 0	inactive: 0.042
ARMC8 (UniProt Q8IUR7)	inactive: 0.005	inactive: 0.013	inactive: 0.005	inactive: -0.015		inactive: -0.045		inactive: 0.165	inactive: 0.014	inactive: 0.051	inactive: 0.021	inactive: -0.026	inactive: -0.036	inactive: 0.038	inactive: -0.082	inactive: -0.008	inactive: -0.019	inactive: -0.112	inactive: 0.007	inactive: -0.053
ATP1B2 (UniProt P14415)	inactive: -0.01	inactive: 0.189	inactive: 0.068	inactive: 0.125	inactive: 0.053	inactive: -0.024	inactive: -0.137	inactive: 0.029	inactive: -0.189	inactive: 0.057	inactive: -0.146	inactive: -0.014			inactive: 0.009		inactive: 0.149	inactive: 0.018	inactive: 0.027	inactive: -0.023
ARL1 (UniProt P40616)	inactive: 0.01	inactive: -0.073	inactive: 0.094	inactive: -0.092		inactive: -0.111		inactive: 0.031	inactive: 0.018	inactive: -0.064	inactive: 0.114	inactive: 0.205	inactive: -0.174	inactive: -0.017	inactive: -0.131	inactive: 0.096	inactive: 0.055	inactive: 0.019	inactive: -0.123	inactive: -0.046
ATP6V0A1 isoform 3 (UniProt Q93050)	inactive: -0.041	inactive: -0.349	inactive: -0.27	inactive: 0.225		inactive: 0.094		inactive: 0.144	inactive: 0.152	active: -0.446	inactive: -0.12	inactive: 0.153	inactive: -0.026	inactive: -0.029	inactive: 0.018	inactive: -0.079	inactive: -0.097	inactive: -0.098	inactive: 0.038	inactive: -0.026

Quoted at random: 2 records from the list
Target	log2 fold change [1]	log2 fold change (crizotinib)	log2 fold change [2]	log2 fold change [3]	log2 fold change (duvelisib)	log2 fold change (gandotinib)	log2 fold change (tozasertib)	log2 fold change [4]	log2 fold change (doramapimod)	log2 fold change (ispinesib)	log2 fold change (bafetinib)	log2 fold change [5]	log2 fold change (nilotinib)	log2 fold change [6]	log2 fold change (dasatinib)	log2 fold change [7]	log2 fold change [8]	log2 fold change [9]	log2 fold change (tipifarnib)	log2 fold change (mubritinib)
ATP1B2 (UniProt P14415)	inactive: -0.01	inactive: 0.189	inactive: 0.068	inactive: 0.125	inactive: 0.053	inactive: -0.024	inactive: -0.137	inactive: 0.029	inactive: -0.189	inactive: 0.057	inactive: -0.146	inactive: -0.014			inactive: 0.009		inactive: 0.149	inactive: 0.018	inactive: 0.027	inactive: -0.023
ATP6V1H (UniProt Q9UI12)	inactive: -0.045	inactive: -0.199	inactive: 0.019	inactive: 0.003		inactive: 0.021		inactive: 0.014	inactive: 0.038	inactive: -0.089	inactive: -0.057	inactive: 0.037	inactive: -0.015	inactive: -0.016	inactive: -0.029	inactive: 0.049	inactive: 0.025	inactive: -0.013	inactive: -0.01	inactive: 0.098
